Measurements taken from the odorant receptor screen of Mainland et al. (2015).
Where “and” joins values, the source holds several entries; their conditions need not be identical. Identical values can stand only once. Some of the results follow. Each value is one well over the wells without odorant, computed here; the data are noisy.

tested on: OR2S2 clone 1462; assay: odorant receptor activation (CRE luciferase / Renilla) (fold of no-odor wells); higher = more activation; settings: 100 µM

Row | SMILES | odorant receptor activation
1 | CCCCO [1-butanol] | 0.943
2 | CC(C)C(=O)O [isobutyric acid] | 0.954 and 1.05
3 | CC(=O)OC1CC2CCC1(C)C2(C)C (stereo not given) [isobornyl acetate] | 0.829 and 1.05

tested on: OR2T1 P132L clone 1474; assay: as above; settings: 100 µM

Row | SMILES | odorant receptor activation
4 | O=CCc1ccccc1 [phenyl acetaldehyde] | 1.56
5 | CC(C)=CCCC(C)=CC=O [citral] | 1.09
6 | CC1CCC(C(C)C)C(O)C1 (single isomer, unassigned; (+)) [(+)-menthol] | 1.29
7 | c1cnccn1 [pyrazine] | 1.05
8 | CCCCCCCCC=O [nonyl aldehyde] | 1.19
9 | CC(=O)C(C)=O [diacetyl] | 1.31
10 | CCCCCC(C)=O [2-heptanone] | 0.768 and 1.05
11 | C=CC(C)(O)CCC=C(C)C (stereo not given) [linalool] | 1.18
12 | CC(C)C=O [isobutyraldehyde] | 1.15 and 1.16
13 | CCCC(=O)O [butyric acid] | 1.21
14 | CC12C=CCC1C1CCC3CC(=O)CCC3(C)C1CC2 (stereo not given) [androstenone] | 0.932
15 | CC(=O)c1ccccc1 [acetophenone] | 0.987 and 1.55
16 | CC1COCc2cc3c(cc21)C(C)(C)C(C)C3(C)C (stereo not given) [galaxolide] | 6.63 and 4
17 | CCCCCCCC=O [octyl aldehyde] | 1.01
18 | CC(=O)OC(C)(C)C1CC=C(C)CC1 (stereo not given) [terpinyl acetate] | 1.32
19 | CCCCCCCCOC(C)=O [octyl acetate] | 0.861
20 | CCCCCCCCCCC=O [undecanal] | 1.04
21 | CCCCCCCOC(C)=O [heptyl acetate] | 1.02 and 1.51
22 | O=C1CCCCCCCCCCCCCCO1 [pentadecalactone] | 1.08
23 | CC1=NC(C)SC1C (stereo not given) | 1.06 and 1.26
24 | COc1cc(C)ccc1O [2-methoxy-4-methylphenol] | 0.93
25 | COC(=O)c1ccccc1O [methyl salicylate] | 1.07
26 | O=C1CCCCCCCCCCCC(=O)OCCO1 [ethylene brassylate] | 1.54
27 | CCCCO [1-butanol] | 1.04
28 | CC=Cc1ccc(O)c(OC)c1 [isoeugenol] | 1.38 and 2.57
29 | CC(C)C(=O)O [isobutyric acid] | 0.82 and 1.07
30 | CC(=O)OC1CC2CCC1(C)C2(C)C (stereo not given) [isobornyl acetate] | 0.943 and 1.3
